Measured values taken from the supplement of paper PMC12819154, “High-throughput peptide-centric local stability assay extends protein–ligand identification to membrane proteins, tissues and bacteria” (Nature Structural & Molecular Biology, 2025).
This is one part of the list. Most entries show no effect beyond the scatter of the controls.

The chains behind the UniProt entries cited, without tags or fusion partners. Where a name states a change or a piece, a line headed by the entry shows the natural chain unless it says otherwise.
UniProt Q8CCF0: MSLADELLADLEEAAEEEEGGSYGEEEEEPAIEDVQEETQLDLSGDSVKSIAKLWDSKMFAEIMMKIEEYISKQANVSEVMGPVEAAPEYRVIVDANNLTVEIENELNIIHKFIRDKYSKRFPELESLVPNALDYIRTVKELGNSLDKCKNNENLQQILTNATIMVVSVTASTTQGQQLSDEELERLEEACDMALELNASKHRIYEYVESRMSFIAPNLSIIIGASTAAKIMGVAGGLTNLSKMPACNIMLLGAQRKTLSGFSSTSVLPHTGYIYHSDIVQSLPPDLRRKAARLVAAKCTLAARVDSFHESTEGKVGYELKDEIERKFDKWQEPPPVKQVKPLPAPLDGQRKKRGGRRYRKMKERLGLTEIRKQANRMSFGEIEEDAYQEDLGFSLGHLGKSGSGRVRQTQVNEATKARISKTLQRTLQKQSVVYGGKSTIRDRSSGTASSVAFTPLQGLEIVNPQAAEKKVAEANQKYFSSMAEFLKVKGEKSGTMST
UniProt Q8BMG8: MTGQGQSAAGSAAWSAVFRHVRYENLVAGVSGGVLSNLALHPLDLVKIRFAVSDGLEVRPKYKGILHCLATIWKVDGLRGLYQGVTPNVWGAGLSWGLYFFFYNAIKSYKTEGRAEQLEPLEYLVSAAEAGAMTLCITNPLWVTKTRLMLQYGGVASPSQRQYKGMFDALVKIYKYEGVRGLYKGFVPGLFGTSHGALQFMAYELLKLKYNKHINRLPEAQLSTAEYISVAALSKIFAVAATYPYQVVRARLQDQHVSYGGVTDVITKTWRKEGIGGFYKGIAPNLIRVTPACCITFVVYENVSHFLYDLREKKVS
UniProt Q8CEI1: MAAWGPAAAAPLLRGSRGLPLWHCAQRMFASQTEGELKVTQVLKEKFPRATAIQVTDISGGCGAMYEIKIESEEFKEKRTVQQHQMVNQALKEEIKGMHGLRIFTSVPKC
UniProt Q8C6I2: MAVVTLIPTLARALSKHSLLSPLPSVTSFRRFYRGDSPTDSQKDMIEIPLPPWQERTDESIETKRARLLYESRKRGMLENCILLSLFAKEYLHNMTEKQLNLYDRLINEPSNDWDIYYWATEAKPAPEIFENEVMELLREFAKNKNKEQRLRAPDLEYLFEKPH
UniProt Q8BHN1: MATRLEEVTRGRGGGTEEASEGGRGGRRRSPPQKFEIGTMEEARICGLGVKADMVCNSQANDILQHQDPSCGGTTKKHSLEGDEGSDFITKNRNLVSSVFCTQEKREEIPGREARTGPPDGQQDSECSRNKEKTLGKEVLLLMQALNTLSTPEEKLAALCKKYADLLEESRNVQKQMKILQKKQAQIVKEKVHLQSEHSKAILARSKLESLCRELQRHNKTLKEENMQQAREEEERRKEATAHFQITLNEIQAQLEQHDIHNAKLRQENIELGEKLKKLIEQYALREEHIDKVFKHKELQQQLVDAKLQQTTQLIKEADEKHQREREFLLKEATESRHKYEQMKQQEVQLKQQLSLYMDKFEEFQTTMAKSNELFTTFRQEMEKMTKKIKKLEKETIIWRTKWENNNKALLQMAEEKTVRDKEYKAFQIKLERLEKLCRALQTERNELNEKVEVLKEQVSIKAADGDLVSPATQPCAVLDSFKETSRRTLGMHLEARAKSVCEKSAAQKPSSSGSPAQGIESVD
UniProt Q8C0C0: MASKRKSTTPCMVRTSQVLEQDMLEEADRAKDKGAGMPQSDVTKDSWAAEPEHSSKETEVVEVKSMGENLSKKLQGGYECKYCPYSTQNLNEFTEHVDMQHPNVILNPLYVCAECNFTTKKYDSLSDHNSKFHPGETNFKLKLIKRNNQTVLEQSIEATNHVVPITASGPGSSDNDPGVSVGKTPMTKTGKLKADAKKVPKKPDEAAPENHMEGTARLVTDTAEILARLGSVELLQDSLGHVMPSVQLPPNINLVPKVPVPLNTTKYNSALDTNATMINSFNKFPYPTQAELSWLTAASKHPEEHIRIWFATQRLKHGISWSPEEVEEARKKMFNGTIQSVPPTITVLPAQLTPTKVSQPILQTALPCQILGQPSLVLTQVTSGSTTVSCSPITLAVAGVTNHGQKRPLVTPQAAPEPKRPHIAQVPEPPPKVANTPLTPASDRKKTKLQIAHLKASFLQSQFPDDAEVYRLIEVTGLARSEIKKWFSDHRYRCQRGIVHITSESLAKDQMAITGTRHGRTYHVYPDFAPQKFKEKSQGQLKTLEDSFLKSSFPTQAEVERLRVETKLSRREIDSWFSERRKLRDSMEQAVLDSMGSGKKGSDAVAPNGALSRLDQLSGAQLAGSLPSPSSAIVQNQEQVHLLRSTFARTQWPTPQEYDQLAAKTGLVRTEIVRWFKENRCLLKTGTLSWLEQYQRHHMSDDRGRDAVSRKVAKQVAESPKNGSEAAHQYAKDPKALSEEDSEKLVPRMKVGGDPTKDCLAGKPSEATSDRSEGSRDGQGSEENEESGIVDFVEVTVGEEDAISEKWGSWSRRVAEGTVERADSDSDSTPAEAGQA
UniProt Q8BU85: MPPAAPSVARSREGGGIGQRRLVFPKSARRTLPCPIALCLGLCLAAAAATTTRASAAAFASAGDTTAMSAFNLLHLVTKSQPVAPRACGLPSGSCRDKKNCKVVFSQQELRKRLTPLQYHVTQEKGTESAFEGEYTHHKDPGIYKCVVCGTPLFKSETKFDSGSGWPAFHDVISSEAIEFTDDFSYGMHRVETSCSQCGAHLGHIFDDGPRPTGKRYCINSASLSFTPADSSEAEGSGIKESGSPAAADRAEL
UniProt Q8CG14: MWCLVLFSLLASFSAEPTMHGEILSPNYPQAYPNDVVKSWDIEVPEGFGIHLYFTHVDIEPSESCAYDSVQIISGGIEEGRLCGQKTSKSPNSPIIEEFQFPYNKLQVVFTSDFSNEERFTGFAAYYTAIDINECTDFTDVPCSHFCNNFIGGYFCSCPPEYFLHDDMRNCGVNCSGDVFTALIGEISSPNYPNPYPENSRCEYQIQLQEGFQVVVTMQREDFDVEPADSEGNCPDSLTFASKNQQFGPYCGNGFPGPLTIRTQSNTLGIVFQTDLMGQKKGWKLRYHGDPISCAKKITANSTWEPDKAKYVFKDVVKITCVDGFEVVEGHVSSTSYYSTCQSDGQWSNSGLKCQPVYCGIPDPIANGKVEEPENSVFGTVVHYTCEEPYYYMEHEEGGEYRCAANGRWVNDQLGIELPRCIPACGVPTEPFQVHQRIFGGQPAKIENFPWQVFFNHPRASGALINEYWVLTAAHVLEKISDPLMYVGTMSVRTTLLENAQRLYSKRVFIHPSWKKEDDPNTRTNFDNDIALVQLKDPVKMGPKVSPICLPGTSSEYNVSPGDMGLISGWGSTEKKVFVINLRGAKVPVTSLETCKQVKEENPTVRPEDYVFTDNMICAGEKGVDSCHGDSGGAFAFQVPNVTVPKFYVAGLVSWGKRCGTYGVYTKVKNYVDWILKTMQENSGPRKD
UniProt Q8C7X2: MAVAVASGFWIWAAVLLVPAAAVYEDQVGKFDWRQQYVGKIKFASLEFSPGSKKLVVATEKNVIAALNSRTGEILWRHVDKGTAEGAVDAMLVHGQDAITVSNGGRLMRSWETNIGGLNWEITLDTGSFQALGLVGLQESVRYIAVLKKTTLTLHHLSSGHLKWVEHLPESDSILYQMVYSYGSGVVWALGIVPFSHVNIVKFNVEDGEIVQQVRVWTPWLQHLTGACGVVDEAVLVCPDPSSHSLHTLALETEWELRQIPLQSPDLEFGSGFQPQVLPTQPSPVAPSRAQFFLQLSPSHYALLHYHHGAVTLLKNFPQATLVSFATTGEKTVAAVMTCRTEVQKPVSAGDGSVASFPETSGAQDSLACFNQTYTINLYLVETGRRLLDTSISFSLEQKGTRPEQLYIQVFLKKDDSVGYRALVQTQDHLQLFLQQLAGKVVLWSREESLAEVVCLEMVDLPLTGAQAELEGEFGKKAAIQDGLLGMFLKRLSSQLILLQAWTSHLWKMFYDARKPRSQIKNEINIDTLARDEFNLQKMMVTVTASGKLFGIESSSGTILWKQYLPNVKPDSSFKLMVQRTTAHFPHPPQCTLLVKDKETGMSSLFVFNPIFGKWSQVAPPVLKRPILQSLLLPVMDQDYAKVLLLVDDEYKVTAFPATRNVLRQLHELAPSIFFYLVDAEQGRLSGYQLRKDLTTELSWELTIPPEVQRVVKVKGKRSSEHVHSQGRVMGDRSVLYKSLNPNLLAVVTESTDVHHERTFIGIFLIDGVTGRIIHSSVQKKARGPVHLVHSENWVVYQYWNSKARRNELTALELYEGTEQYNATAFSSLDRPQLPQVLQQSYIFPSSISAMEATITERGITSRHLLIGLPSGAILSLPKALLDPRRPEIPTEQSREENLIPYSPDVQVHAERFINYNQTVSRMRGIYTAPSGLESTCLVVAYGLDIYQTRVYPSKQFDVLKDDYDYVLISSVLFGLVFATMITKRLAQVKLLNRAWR
UniProt Q8BMF4: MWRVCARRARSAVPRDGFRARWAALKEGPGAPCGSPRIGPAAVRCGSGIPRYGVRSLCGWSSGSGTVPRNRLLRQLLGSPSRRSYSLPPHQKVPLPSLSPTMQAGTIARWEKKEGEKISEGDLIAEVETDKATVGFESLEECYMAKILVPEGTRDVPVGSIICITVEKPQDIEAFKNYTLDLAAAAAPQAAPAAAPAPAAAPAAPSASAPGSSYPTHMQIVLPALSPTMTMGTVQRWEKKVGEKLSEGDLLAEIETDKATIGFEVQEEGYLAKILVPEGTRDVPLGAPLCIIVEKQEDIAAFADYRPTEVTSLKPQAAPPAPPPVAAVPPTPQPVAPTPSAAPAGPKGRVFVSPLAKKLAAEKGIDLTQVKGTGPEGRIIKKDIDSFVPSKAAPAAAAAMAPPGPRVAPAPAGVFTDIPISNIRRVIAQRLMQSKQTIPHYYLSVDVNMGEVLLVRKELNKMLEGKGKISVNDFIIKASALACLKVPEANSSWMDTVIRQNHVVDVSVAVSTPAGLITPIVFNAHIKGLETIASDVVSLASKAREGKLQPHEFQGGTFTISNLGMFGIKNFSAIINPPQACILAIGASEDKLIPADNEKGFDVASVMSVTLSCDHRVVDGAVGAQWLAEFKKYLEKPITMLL
UniProt Q8BYK6: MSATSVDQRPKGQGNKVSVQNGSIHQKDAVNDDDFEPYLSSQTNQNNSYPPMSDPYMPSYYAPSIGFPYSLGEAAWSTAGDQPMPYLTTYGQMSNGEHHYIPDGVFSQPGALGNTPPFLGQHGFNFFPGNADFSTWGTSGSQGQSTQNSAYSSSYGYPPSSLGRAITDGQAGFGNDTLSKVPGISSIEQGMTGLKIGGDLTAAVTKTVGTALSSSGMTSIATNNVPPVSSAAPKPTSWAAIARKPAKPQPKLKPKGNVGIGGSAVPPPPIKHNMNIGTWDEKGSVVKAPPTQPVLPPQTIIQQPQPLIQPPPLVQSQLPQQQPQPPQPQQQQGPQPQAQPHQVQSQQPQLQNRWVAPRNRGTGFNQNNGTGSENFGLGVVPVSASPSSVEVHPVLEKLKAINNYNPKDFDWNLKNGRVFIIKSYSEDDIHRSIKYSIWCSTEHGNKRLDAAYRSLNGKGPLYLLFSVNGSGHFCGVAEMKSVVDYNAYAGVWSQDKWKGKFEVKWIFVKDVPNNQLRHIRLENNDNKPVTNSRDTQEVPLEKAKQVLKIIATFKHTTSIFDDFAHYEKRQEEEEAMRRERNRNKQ
UniProt Q8C6B9: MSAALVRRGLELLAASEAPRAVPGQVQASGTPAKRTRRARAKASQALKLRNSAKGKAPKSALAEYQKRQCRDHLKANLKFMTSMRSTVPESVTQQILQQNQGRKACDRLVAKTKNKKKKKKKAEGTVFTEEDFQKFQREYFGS
UniProt Q8BKZ9: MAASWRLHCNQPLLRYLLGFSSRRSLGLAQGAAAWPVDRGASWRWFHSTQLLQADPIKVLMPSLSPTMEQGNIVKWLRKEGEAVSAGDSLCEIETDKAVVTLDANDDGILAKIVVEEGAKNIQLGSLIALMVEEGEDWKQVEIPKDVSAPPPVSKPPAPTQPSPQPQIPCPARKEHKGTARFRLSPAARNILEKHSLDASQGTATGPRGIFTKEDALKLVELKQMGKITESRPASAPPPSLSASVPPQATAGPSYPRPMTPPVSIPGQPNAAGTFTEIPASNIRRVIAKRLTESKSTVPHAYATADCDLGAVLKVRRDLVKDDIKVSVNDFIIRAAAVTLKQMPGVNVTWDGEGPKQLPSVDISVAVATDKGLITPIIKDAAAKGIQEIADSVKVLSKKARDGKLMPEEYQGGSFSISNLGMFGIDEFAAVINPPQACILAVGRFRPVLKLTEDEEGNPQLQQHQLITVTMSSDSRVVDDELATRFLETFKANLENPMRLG
UniProt Q8C0K5: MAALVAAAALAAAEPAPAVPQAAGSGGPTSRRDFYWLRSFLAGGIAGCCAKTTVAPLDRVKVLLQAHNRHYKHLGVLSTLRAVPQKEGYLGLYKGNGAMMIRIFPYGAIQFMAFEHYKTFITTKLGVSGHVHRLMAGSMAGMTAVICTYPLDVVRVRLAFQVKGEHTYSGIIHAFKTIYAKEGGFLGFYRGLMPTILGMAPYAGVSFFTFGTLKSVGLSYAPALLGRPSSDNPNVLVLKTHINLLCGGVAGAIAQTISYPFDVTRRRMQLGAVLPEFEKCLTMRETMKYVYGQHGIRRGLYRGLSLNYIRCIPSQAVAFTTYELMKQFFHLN

These targets were tested with CN[C@@H]1C[C@H]2O[C@@](C)([C@@H]1OC)n1c3ccccc3c3c4c(c5c6ccccc6n2c5c31)C(=O)NC4 [staurosporine] (assay: log2 fold change of pooled soluble protein (PISA), ligand vs vehicle (log2 ratio); higher = more thermally stabilized). Conditions: ligand concentration: 20 uM; assay format: PISA pool 52.9/55.5/58.6 C.
UniProt Q8CCF0 was tested, and the “log2 fold change of pooled soluble protein” value (shortened to “log2 fold change”) was -0.376.
For UniProt Q8BMG8, the “log2 fold change” value was 0.252.
In the case of UniProt Q8BVE3, the “log2 fold change” value is reported as 0.125.
UniProt Q8C9S4 was tested, and the “log2 fold change” value was -0.0389.
For UniProt Q8CEI1, the “log2 fold change” value was -0.173.
For UniProt Q8C6I2, the “log2 fold change” value was -0.000627.
In the case of UniProt Q8BHN1, the “log2 fold change” value is reported as 0.138.
For UniProt Q8BYM8, the “log2 fold change” value was -0.00402.
For UniProt Q8CDM8, the “log2 fold change” value was 0.155.
In the case of UniProt Q8BRV5, the “log2 fold change” value is reported as 0.14.
With UniProt Q8C0C0 the “log2 fold change” value was -0.132.
Q8BPB0;Q921Y0 was tested, and the “log2 fold change” value was -0.122.
UniProt Q8BY89 was tested, and the “log2 fold change” value was -0.0361.
UniProt Q8BU85 was tested, and the “log2 fold change” value was -0.11.
In the case of UniProt Q8BJY1, the “log2 fold change” value is reported as -0.0596.
With UniProt Q8BTS4 the “log2 fold change” value was 0.0858.
For UniProt Q8CAS9, the “log2 fold change” value was 0.0603.
In the case of UniProt Q8BP78, the “log2 fold change” value is reported as 0.0498.
In the case of UniProt Q8BXB6, the “log2 fold change” value is reported as 0.0128.
For UniProt Q8CG14, the “log2 fold change” value was -0.0472.
For UniProt Q8C7X2, the “log2 fold change” value was -0.113.
For UniProt Q8C9B9, the “log2 fold change” value was 0.0232.
In the case of UniProt Q8BMK4, the “log2 fold change” value is reported as -0.0493.
UniProt Q8BMF4 was tested, and the “log2 fold change” value was -0.0842.
In the case of UniProt Q8BYK6, the “log2 fold change” value is reported as -0.00104.
With UniProt Q8BSD5 the “log2 fold change” value was 0.0538.
In the case of UniProt Q8BGS2, the “log2 fold change” value is reported as 0.069.
In the case of UniProt Q8CBW3, the “log2 fold change” value is reported as -0.0659.
In the case of UniProt Q8BHD7, the “log2 fold change” value is reported as -0.154.
UniProt Q8BI84 was tested, and the “log2 fold change” value was 0.00727.
UniProt Q8C6B9 was tested, and the “log2 fold change” value was -0.0163.
For UniProt Q8BW75, the “log2 fold change” value was -0.00449.
UniProt Q8C3W1 was tested, and the “log2 fold change” value was 0.089.
For UniProt Q8BIH0, the “log2 fold change” value was -0.0828.
UniProt Q8BKZ9 was tested, and the “log2 fold change” value was -0.0393.
For UniProt Q8CG64, the “log2 fold change” value was -0.301.
UniProt Q8C0K5 was tested, and the “log2 fold change” value was -0.049.
